According to US9216204B2, “Bone targeted therapeutics and methods of making and using the same” (MBC Pharma, Inc., priority 1998, dated 2015):

Test: Binding of bisphosphonate conjugates on hydroxyapatite powder (UV absorbency of supernatant)
Protocol: A. To estimate the binding of BC on hydroxyapatite (mineral component of a bone) UV spectra of BC in buffer pH 7 were recorded before and after treatment with hydroxyapatite. To this end 10 μl of hydroxyapatite suspension in water was added to 1 ml of ˜10^−4 M solution of a BC in 0.1M Tris-HCl buffer, pH 7.0, 0.15 M NaCl and the mixture was intensively shaken for 10 minutes, and centrifuged for 5 minutes at 10,000 rpm in a microcentrifuge. The supernatant was separated and an absorbency spectrum of the supernatant was recorded.

With `O=c1[nH]c(=O)n(COCCOP(=O)(O)OP(=O)(O)CP(=O)(O)O)cc1F` [II, Anhydride of 1-(2′-hydroxyethoxymethyl)-5-fluorouracil-2′-phosphate and methylenediphosphonic acid] the “Peak absorbency after hydroxyapatite addition” value (supernatant after 10 min shaking with hydroxyapatite, pH 7.0) was 0.085 and the “Peak absorbency before hydroxyapatite addition” value (~10^-4 M in 0.1M Tris-HCl buffer, pH 7.0, 0.15 M NaCl) was 0.667.
